Data published in publication PMC2724103.
Results are given in words; binding and its absence hold for the method and conditions named. Binding seen in cells or lysates may run through a third protein. Some entries that bind do so weakly or less than the wild type. Sequences can lack the tags named with a protein.

Molecular target: T1, HA-tagged syntaxin5 (human) (UniProt Q13190)
T1 sequence: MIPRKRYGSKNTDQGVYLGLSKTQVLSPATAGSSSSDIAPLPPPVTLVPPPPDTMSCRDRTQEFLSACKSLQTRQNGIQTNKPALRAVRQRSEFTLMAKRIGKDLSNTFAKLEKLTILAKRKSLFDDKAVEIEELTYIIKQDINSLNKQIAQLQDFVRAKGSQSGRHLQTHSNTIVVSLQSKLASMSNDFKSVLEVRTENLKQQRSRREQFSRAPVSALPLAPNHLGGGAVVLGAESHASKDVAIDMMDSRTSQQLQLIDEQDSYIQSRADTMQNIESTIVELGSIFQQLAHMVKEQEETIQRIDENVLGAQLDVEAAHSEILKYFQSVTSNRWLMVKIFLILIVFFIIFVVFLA
Test: co-IP; HeLa cells transiently transfected with pcDNA3.1-HA-STX5, noninfected or infected with wild-type S. Typhimurium, ΔsptP, or ΔsptP pSPTP; HA-syntaxin5 immunoprecipitated with anti-HA on protein G Sepharose; immunoblot for HA and VCP in bound and unbound fractions

- binding: binds
Substance: VCP, endogenous in HeLa cells (from UniProt P55072 1-806)
